The supplement of paper PMC10849652
The other results are listed elsewhere or left out.

The chains behind the UniProt entries cited, without tags or fusion partners. Where a name states a change or a piece, a line headed by the entry shows the natural chain unless it says otherwise.
UniProt P16150: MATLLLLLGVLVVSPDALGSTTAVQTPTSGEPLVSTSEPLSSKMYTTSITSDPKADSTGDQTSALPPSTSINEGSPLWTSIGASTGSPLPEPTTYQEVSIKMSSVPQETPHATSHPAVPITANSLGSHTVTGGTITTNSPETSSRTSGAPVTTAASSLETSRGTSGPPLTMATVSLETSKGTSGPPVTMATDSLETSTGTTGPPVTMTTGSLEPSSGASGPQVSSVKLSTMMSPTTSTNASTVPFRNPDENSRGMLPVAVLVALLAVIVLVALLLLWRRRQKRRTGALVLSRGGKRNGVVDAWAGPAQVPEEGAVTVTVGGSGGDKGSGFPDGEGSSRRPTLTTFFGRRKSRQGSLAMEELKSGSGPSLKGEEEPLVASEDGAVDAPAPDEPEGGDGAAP
UniProt Q9NQZ5: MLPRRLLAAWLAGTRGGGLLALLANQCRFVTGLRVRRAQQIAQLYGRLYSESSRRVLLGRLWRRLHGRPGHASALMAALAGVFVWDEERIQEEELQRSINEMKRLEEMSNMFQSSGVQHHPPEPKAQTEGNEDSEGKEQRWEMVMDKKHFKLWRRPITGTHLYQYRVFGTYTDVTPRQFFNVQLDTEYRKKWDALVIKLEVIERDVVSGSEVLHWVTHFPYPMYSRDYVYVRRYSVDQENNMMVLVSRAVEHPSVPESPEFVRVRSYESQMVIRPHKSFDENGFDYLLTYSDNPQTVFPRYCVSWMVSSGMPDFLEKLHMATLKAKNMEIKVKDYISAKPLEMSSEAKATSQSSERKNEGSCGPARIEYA
UniProt Q9H2V7: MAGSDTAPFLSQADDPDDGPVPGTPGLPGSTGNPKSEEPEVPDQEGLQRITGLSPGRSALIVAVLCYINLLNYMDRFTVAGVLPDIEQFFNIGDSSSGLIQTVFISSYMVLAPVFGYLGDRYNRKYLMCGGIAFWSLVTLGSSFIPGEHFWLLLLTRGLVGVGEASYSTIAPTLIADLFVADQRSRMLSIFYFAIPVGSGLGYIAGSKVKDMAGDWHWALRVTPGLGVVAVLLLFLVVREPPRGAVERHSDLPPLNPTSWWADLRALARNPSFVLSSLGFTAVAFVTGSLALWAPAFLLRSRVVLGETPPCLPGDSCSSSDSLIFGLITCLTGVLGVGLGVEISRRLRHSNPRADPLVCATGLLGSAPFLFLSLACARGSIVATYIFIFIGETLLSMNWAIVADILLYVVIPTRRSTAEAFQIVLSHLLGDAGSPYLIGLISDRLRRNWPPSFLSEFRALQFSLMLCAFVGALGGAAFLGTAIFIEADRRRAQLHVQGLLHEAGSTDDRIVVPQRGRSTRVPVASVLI
UniProt Q8NB90: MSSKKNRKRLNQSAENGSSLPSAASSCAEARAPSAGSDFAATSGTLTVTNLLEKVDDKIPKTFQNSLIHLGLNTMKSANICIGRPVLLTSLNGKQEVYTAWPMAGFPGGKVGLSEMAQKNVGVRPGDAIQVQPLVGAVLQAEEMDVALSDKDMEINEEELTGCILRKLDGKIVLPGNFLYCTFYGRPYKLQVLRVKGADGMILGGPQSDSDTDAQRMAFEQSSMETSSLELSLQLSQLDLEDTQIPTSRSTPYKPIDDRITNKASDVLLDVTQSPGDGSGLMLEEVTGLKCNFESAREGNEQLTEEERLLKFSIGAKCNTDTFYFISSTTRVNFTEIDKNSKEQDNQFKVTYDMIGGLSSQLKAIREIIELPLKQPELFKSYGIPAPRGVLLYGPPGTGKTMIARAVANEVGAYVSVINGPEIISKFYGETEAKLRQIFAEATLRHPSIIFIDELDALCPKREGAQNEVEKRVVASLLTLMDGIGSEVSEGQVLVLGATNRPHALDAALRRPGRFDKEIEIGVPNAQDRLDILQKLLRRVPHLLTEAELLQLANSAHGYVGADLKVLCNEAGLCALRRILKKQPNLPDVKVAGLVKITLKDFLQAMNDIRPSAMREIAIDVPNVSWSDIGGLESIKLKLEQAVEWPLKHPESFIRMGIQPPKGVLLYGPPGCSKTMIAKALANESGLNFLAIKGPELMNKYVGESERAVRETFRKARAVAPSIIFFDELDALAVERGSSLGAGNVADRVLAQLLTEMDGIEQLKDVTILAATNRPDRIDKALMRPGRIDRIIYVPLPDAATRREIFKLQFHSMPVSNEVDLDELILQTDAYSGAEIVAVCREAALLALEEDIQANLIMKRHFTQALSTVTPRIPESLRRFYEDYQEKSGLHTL
UniProt O15269: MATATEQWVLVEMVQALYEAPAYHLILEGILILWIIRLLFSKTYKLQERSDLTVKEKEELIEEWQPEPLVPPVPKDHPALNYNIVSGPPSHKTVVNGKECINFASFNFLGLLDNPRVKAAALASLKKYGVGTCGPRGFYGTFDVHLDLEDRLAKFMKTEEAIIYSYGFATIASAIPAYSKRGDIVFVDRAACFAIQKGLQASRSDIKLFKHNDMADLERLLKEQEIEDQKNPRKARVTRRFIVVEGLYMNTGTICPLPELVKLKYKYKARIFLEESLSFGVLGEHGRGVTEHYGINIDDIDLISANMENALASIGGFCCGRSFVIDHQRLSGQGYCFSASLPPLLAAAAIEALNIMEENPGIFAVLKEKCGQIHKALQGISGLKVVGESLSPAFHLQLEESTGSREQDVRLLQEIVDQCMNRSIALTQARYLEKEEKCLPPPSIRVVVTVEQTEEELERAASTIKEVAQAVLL
UniProt Q8IYB3: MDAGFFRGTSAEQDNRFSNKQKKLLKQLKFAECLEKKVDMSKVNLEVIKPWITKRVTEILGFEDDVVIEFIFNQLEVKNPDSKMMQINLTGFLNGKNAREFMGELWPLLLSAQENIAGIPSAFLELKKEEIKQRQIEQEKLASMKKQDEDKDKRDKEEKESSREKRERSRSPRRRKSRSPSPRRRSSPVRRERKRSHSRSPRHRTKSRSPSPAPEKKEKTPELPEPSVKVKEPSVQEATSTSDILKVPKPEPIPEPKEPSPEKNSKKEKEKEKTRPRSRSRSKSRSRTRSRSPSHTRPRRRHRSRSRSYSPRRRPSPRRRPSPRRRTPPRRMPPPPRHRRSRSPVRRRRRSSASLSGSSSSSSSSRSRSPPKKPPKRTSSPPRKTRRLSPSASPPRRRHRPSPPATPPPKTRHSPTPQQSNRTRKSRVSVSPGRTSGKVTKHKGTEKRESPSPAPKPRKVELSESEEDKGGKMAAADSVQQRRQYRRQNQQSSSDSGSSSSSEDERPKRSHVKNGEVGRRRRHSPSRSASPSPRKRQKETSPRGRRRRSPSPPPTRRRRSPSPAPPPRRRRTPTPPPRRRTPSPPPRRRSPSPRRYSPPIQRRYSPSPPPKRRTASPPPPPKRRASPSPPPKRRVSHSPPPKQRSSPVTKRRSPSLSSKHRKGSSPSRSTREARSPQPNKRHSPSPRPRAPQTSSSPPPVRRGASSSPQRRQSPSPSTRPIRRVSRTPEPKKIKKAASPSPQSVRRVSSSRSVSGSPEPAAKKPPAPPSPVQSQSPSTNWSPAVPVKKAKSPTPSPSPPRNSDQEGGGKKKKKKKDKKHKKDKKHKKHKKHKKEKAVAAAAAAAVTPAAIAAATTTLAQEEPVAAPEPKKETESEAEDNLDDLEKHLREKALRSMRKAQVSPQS
UniProt O43805: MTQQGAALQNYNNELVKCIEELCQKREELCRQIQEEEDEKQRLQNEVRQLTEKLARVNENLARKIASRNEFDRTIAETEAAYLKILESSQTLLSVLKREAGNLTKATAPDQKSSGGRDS
UniProt O15020, whole entry, looked up: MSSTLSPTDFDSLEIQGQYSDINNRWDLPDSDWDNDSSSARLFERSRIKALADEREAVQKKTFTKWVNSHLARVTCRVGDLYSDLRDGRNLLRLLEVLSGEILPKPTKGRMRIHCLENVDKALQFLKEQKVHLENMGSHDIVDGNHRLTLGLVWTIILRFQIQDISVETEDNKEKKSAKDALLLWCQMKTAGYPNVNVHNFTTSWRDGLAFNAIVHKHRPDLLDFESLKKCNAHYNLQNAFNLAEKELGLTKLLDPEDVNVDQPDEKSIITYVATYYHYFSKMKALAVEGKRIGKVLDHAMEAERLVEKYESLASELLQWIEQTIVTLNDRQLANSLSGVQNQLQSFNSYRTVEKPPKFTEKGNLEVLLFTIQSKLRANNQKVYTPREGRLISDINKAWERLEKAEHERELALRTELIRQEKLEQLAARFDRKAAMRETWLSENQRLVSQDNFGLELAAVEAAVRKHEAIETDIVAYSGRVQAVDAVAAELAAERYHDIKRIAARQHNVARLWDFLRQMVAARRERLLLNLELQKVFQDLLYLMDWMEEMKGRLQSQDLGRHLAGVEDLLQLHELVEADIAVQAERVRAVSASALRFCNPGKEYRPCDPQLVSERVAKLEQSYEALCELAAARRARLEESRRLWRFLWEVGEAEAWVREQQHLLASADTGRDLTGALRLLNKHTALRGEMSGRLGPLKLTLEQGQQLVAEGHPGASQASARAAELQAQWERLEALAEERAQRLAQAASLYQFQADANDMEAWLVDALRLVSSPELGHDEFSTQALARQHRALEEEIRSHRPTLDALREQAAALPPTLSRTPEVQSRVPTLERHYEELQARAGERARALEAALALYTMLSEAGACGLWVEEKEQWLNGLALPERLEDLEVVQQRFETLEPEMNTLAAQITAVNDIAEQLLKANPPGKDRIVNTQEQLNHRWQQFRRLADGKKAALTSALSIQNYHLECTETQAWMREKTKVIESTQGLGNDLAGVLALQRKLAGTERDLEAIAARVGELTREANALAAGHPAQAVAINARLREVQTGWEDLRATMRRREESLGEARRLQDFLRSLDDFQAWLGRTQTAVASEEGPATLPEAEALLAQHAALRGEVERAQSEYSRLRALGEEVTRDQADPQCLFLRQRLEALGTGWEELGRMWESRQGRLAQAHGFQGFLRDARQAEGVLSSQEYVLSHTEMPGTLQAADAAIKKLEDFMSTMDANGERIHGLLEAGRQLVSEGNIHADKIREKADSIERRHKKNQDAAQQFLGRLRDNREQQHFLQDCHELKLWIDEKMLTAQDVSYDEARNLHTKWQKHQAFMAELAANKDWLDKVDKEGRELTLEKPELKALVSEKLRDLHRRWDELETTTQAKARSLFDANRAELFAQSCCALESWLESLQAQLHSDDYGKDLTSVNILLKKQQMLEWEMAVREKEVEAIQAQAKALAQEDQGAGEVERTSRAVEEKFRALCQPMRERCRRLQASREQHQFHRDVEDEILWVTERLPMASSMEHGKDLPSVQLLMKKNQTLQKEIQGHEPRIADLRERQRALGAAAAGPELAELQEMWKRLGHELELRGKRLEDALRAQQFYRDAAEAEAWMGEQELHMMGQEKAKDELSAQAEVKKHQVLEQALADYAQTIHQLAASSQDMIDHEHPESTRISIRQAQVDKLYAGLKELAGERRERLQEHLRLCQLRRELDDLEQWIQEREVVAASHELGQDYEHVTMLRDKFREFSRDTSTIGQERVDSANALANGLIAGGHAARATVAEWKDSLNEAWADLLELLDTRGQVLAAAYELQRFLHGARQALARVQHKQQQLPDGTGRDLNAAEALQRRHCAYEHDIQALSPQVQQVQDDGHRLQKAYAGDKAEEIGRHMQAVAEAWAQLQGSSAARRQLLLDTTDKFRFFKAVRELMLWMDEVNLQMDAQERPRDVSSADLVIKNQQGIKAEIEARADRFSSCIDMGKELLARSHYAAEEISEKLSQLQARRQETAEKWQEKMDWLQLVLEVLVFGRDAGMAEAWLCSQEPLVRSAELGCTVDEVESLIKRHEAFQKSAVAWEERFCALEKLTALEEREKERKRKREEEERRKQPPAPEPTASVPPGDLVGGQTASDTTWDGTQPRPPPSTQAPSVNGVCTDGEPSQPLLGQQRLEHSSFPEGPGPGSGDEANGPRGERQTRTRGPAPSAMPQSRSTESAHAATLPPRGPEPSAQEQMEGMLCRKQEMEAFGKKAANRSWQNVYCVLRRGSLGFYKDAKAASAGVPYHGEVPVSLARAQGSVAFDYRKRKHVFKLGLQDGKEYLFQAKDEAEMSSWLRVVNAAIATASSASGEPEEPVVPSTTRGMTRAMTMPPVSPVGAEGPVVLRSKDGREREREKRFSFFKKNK
UniProt Q05519: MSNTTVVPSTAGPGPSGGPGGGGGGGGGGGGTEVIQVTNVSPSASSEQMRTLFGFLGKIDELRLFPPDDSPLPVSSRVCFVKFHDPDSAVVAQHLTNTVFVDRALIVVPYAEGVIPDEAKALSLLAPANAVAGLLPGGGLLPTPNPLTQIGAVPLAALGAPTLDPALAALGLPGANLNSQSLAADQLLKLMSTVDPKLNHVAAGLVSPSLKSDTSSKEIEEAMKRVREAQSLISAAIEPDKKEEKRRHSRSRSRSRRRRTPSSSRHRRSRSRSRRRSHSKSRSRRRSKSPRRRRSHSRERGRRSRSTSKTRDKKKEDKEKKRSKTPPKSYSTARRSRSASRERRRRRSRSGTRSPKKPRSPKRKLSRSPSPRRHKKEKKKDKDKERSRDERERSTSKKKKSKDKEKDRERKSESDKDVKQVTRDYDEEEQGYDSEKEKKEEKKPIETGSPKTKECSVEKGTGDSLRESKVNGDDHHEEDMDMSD

How the values were obtained:
Test in all cases: log2 fold change, soluble protein after heating vs DMSO (PISA); higher = thermal stabilisation; K562 cells, 10 uM, 30 min; active = over 0.2 and 3.5 SD of the protein, either way, in both replicates (recomputed)
[1] = compound: C1=CC=C(C=C1)[C@H](COC2=CC3=C(C=C2)NC(=O)N3)NC(=O)C4=CC=CN(C4=O)CC5=CC(=C(C=C5)F)F
Procedure, shortened: (§1)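 K562 cells at 2×10^6 cells/mL were given 10 μM compound for 30 min. Aliquots then went through 3 min of heating across 48°C-58°C, were pooled, and were extracted in PBS with 0.5% NP-40 at 4°C, and the supernatant after 21,000xg for 90 min was quantified by TMTpro 16plex LC-MS/MS with channel sums equalised. Thermal stability relative to control samples, from duplicates, is given as log2 fold change.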

[2] = compound: CC1=C(SC2=C1C(=N[C@H](C3=NN=C(N32)C)CC(=O)N)C4=CC=C(C=C4)Cl)C
Procedure, shortened: as §1

[3] = compound: CC1=C2C(=CC=C1)N=C(N(C2=O)C3=CC=CC=C3C)CN4C=NC5=C(N=CN=C54)N
Procedure, shortened: as §1

[4] = compound: Cc1sc2c(c1C)C(c1ccc(Cl)cc1)=N[C@@H](CC(=O)OC(C)(C)C)c1nnc(C)n1-2
Procedure, shortened: as §1

[5] = compound: c1ccc([C@@H]2C[C@H]2NC2CCNCC2)cc1
Procedure, shortened: as §1

Measured: log2 fold change

SRP72 (UniProt O76094)
inactive: [1] -0.068 | [2] -0.016 | [3] 0.047 | [4] 0.097 | [5] -0.016

SPCS1, A0A5F9YFS9
inactive: [1] 0.014 | [2] 0.277 | [3] 0.106 | [4] -0.176 | [5] -0.329

SSBP1 (UniProt Q04837)
inactive: [1] 0.05 | [2] -0.063 | [3] -0.009 | [4] -0.019 | [5] 0.023

SRSF10 (UniProt O75494)
inactive: [1] 0.001 | [2] -0.475 | [3] -0.187 | [4] 0.249 | [5] 0.17

STEAP3 isoform 2 (UniProt Q658P3)
inactive: [1] -0.011 | [2] 0 | [3] 0.022 | [4] -0.034 | [5] -0.04

SPN (UniProt P16150)
inactive: [1] 0.027 | [2] 0.005 | [3] -0.007 | [4] 0.016 | [5] 0.022

SQLE (UniProt Q14534)
inactive: [1] -0.012 | [2] 0.144 | [3] 0.032 | [4] -0.005 | [5] -0.052

SPTBN4 (UniProt Q9H254)
inactive: [1] -0.058 | [2] -0.083 | [3] 0.148 | [4] 0.014 | [5] -0.001

SPRYD7 (UniProt Q5W111)
inactive: [1] -0.02 | [2] 0.074 | [3] 0.113 | [4] -0.028 | [5] -0.049

STARD7 (UniProt Q9NQZ5)
inactive: [1] -0.018 | [2] 0.075 | [3] 0.145 | [4] 0.063 | [5] -0.017

SSU72 (UniProt Q9NP77)
inactive: [1] -0.057 | [2] 0.05 | [3] 0.25 | [4] -0.021 | [5] -0.063

STAT6 (UniProt P42226)
inactive: [1] -0.02 | [2] -0.019 | [3] 0.198 | [4] 0.009 | [5] -0.015

STARD3 (UniProt Q14849)
inactive: [1] 0.011 | [2] -0.036 | [3] 0.14 | [4] 0.066 | [5] -0.153

SPTA1 (UniProt P02549)
inactive: [1] -0.018 | [2] -0.053 | [3] 0.025 | [4] 0.115 | [5] 0.039

Taken from above (4 entries):
SSU72 (UniProt Q9NP77)
inactive: [1] -0.057 | [2] 0.05 | [3] 0.25 | [4] -0.021 | [5] -0.063

STAT6 (UniProt P42226)
inactive: [1] -0.02 | [2] -0.019 | [3] 0.198 | [4] 0.009 | [5] -0.015

STARD3 (UniProt Q14849)
inactive: [1] 0.011 | [2] -0.036 | [3] 0.14 | [4] 0.066 | [5] -0.153

SPTA1 (UniProt P02549)
inactive: [1] -0.018 | [2] -0.053 | [3] 0.025 | [4] 0.115 | [5] 0.039

Continuation:

SPATA5L1 (UniProt Q9BVQ7)
inactive: [1] 0.05 | [2] -0.014 | [3] 0.008 | [4] -0.001 | [5] 0

SSBP3 (UniProt Q9BWW4)
inactive: [1] 0.052 | [2] 0.048 | [3] 0.06 | [4] -0.14 | [5] 0.004

ST7 (UniProt Q9NRC1)
inactive: [1] 0.021 | [2] 0.019 | [3] 0.082 | [4] 0.051 | [5] -0.012

STAT1 (UniProt P42224)
inactive: [1] 0.041 | [2] -0.092 | [3] 0.107 | [4] 0.202 | [5] 0.004

SREK1IP1 (UniProt Q8N9Q2)
inactive: [1] 0.031 | [2] -0.057 | [3] -0.039 | [4] -0.005 | [5] -0.018

SPPL2A (UniProt Q8TCT8)
inactive: [1] 0.023 | [2] 0.005 | [3] -0.128 | [4] 0.035 | [5] 0.02

SPNS1 (UniProt Q9H2V7)
inactive: [1] 0.005 | [2] -0.024 | [3] 0.063 | [4] -0.026 | [5] 0.035

SPATA5 (UniProt Q8NB90)
inactive: [1] 0.04 | [2] 0.002 | [3] -0.026 | [4] 0.01 | [5] 0.021

SSB (UniProt P05455)
inactive: [1] -0.02 | [2] 0.088 | [3] 0.014 | [4] 0.007 | [5] 0.055

STAT5B (UniProt P51692)
inactive: [1] 0.036 | [2] 0.08 | [3] 0.05 | [4] 0.033 | [5] 0.052

STARD3NL (UniProt O95772)
inactive: [1] 0.027 | [2] 0.025 | [3] 0.142 | [4] 0 | [5] 0.039

STAMBP (UniProt O95630)
inactive: [1] 0.007 | [2] 0.013 | [3] 0.028 | [4] -0.016 | [5] -0.001

SPIN1 (UniProt Q9Y657)
inactive: [1] -0.13 | [2] -0.037 | [3] 0.066 | [4] 0.022 | [5] 0.027

SSR3 isoform 2 (UniProt Q9UNL2)
inactive: [1] 0.016 | [2] -0.087 | [3] -0.107 | [4] -0.078 | [5] -0.168

SPEN (UniProt Q96T58)
inactive: [1] 0.02 | [2] -0.066 | [3] -0.011 | [4] -0.168 | [5] 0.033

SRGN (UniProt P10124)
inactive: [1] 0.045 | [2] 0.011 | [3] 0.013 | [4] 0.086 | [5] 0.095

SRI (UniProt P30626)
inactive: [1] -0.034 | [2] 0.111 | [3] 0.043 | [4] -0.093 | [5] -0.064

SPTLC1 (UniProt O15269)
inactive: [1] -0.002 | [2] 0.03 | [3] 0.066 | [4] -0.107 | [5] -0.02

SRSF1 (UniProt Q07955)
inactive: [1] 0.071 | [2] -0.149 | [3] -0.244 | [4] 0.127 | [5] 0.079

STARD9 (UniProt Q9P2P6)
inactive: [1] -0.073 | [2] 0.147 | [3] -0.072 | [4] 0.042 | [5] -0.087

SRP14 (UniProt P37108)
inactive: [1] 0.13 | [2] -0.272 | [3] -0.258 | [4] 0.185 | [5] 0

STK24 (UniProt Q9Y6E0)
inactive: [1] -0.017 | [2] 0.067 | [3] 0.055 | [4] 0.004 | [5] 0.005

SSR4 (UniProt P51571)
inactive: [1] 0.045 | [2] 0.046 | [3] 0.002 | [4] -0.048 | [5] -0.018

SRRM2 (UniProt Q9UQ35)
inactive: [1] -0.005 | [2] -0.015 | [3] 0 | [4] 0.05 | [5] 0.037

SPARC (UniProt P09486)
inactive: [1] 0.01 | [2] 0.059 | [3] 0.025 | [4] 0 | [5] 0.139

SS18 (UniProt Q15532)
inactive: [1] 0.002 | [2] 0.195 | [3] -0.106 | [4] -0.018 | [5] -0.094

SRRM1 (UniProt Q8IYB3)
inactive: [1] 0.062 | [2] -0.056 | [3] -0.091 | [4] 0.202 | [5] 0.061

SRSF3 (UniProt P84103)
inactive: [1] 0.099 | [2] -0.18 | [3] -0.159 | [4] 0.152 | [5] 0.055

SRPRA (UniProt P08240)
inactive: [1] 0.001 | [2] -0.032 | [3] 0.031 | [4] -0.061 | [5] -0.038

SSNA1 (UniProt O43805)
inactive: [1] 0.035 | [2] 0.071 | [3] 0.064 | [4] -0.021 | [5] 0

SPTBN2 (UniProt O15020)
inactive: [1] 0.007 | [2] -0.051 | [3] 0.065 | [4] 0.024 | [5] -0.046

SRSF11 (UniProt Q05519)
inactive: [1] 0.008 | [2] 0.037 | [3] 0.044 | [4] -0.082 | [5] -0.028

SPG21 (UniProt Q9NZD8)
inactive: [1] -0.128 | [2] -0.035 | [3] 0.031 | [4] -0.062 | [5] -0.02

SRM (UniProt P19623)
inactive: [1] 0.002 | [2] 0.065 | [3] 0.031 | [4] -0.013 | [5] -0.053

ST13 (UniProt P50502)
inactive: [1] -0.029 | [2] 0.07 | [3] 0.039 | [4] -0.006 | [5] -0.018

SRR (UniProt Q9GZT4)
inactive: [1] 0.03 | [3] 0.109 | [4] -0.055

STARD10 (UniProt Q9Y365)
inactive: [3] -0.004

SSBP4 (UniProt Q9BWG4)
inactive: [1] 0.086 | [4] 0.037

SRRD (UniProt Q9UH36)
inactive: [1] -0.33 | [4] 0.045

SSX1 (UniProt Q16384)
inactive: [1] -0.209 | [2] -0.095 | [5] 0.143

SPTAN1 isoform 3 (UniProt Q13813)
inactive: [3] -0.128

STAT5A (UniProt P42229)
inactive: [1] -0.028 | [2] 0.058 | [3] 0.134 | [4] -0.006 | [5] 0.008
